In PubChem BioAssay AID2685 (National Center for Advancing Translational Sciences (NCATS), 2010):
The other results are listed elsewhere or left out. Shown are side measurements of this screen, not its main read-out; they come without a call. Compounds called inactive in the main read-out are mostly missing here. Potencies come from curve fits of mixed quality, noted in brackets.

Assay: qHTS Assay for Lipid Storage Modulators in Drosophila S3 Cells;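 on cell number change: cells counted by Cell Tracker Red CMTPX staining in the red channel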
Settings: BODIPY lipid droplet fluorescence, 18-24 h; for cell number change: measured here: cell count max response, cells fed with added oleic acid
How it was run: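 Drosophila S3 cells loaded with oleic acid (400 uM, as added) and compounds at several concentrations; lipid droplets imaged by 488-nm laser-scanning cytometry, 500–530 nm intensity and object ratio to cell channel. Percent activity normalized to 20 uM Triacsin C.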

[1] = measured here: lipid fluorescence (Fed channel) AC50, cells fed with added oleic acid
[2] = measured here: cell number channel AC50, cells fed with added oleic acid

Structure (SMILES)	cell number change	AC50 [1]	AC50 [2]
COc1ccc(N2C(=O)CC(Nc3ccc(F)cc3)C2=O)c([N+](=O)[O-])c1 (centres undefined)	21.9%	7940 nM [rising, partial curve]	
CCCCN(C(=O)c1cccc(S(=O)(=O)N(C)c2ccc(C)cc2)c1)c1c(N)n(CCCC)c(=O)[nH]c1=O	-25.4%		2310 nM [falling, full curve, poor fit]
CCOCCCNC(=O)C1CC(=O)N(C2CCCC2)C1 (centres undefined)	-34.9%	3660 nM [falling, full curve]	731 nM [falling, full curve, poor fit]
CCCCN1CCN=C1N(C)C	13.7%	651 nM [falling, full curve]	820 nM [falling, full curve]
COc1ccccc1CNCc1cc(Br)ccc1OC	6.34%	4110 nM [falling, single point]	
O=C(CN1CCC(NC(=O)C2CCCCC2)CC1)Nc1cccc(F)c1	39.5%	651 nM [rising, full curve, poor fit]	
CN/C(=C\[N+](=O)[O-])NCCSCc1ccc(CN(C)C)o1	-26.6%	29100 nM [falling, single point]	
Cc1ccc(S(=O)(=O)NC(C)C(=O)N2CCOCCOCCOCCOCC2)cc1 (centres undefined)	-9.52%	29100 nM [rising, partial curve]	
Nc1cccc(O)c1	1.24%	920 nM [rising, full curve]	
Cc1cccc(OCC(=O)Nc2ccccc2N2CCCCC2)c1	-55.3%		29100 nM [falling, partial curve]
COc1ccccc1Nc1nc(Cl)nc(NC(C)(C)C)n1	19.2%	10300 nM [rising, partial curve]	4.61 nM [rising, full curve, poor fit]
NC(=O)C(c1ccc(Cl)cc1)c1ccc(Sc2ccc(Cl)cc2)nn1 (centres undefined)	-50.5%	25900 nM [falling, single point]	20600 nM [falling, single point]
CCc1cccc(C)c1NC(=O)CSc1nc(-c2ccccc2F)nc2nc[nH]c12	24.2%	18.4 nM [rising, full curve, poor fit]	
CCCCN1C(=O)c2ccc(C(=O)Nc3cccc(C)c3C)cc2C1=O	21.8%	6510 nM [rising, partial curve]	130 nM [rising, full curve, poor fit]
COc1ccc(CCNC(=O)CCNS(=O)(=O)c2cccc(Cl)c2)cc1OC			206 nM [falling, full curve, poor fit]

2 entries from above, field by field:
CCOCCCNC(=O)C1CC(=O)N(C2CCCC2)C1 (centres undefined)
  cell number change: -34.9%; AC50 [1]: 3660 nM [falling, full curve]; AC50 [2]: 731 nM [falling, full curve, poor fit]
CCCCN1CCN=C1N(C)C
  cell number change: 13.7%; AC50 [1]: 651 nM [falling, full curve]; AC50 [2]: 820 nM [falling, full curve]
